Assay results taken from PubChem BioAssay AID504467 (National Center for Advancing Translational Sciences (NCATS), 2011).
Screen size: about 330,000 compounds; about 7,700 (2.3%) were called active. Inconclusive results, whose numbers are uncertain, are shown with a selection of clear calls. Calls follow the shape of the dose curve; as a rule, active = well fitted inhibition curve with a large enough effect; inconclusive = small, poorly fitted or top-dose-only effect, or effect the other way; inactive = flat fitted curve, though single readings scatter. Potencies beside an inconclusive call are fits to weak or partial responses and may not hold up.

Test: qHTS screen for small molecules that inhibit ELG1-dependent DNA repair in human embryonic kidney (HEK293T) cells expressing luciferase-tagged ELG1; also: nearly all actives have a fitted effect of over 55% in size
Details: HEK293T ELG1-luciferase reporter, luminescence, 16 h, DNA damage induced by 5-fluorouridine; activity change, negative = inhibition: at 46.1 µM (top of the series)
How it was run: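 Cells (2,000 per well) received 5-fluorouridine plus test compound or DMSO and were incubated 16 hr at 37 °C, 5% CO2. Luciferase activity was read by luminescence 30 min after ONE-Glo addition; signal suppression marked inhibition of damage-induced ELG1 function.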
% is scaled to controls: 0 for no effect and ±100 for the full control effect; potency is read from the fitted curve at half-maximal effect.

Row | Compound | Potency | activity change, negative = inhibition
1 | CCc1nnc(NC(=O)CCC(=O)Nc2ccc(OC)cc2OC)s1 | inconclusive: 20.6 µM [activator, single point] | –
2 | O=C1CC(=O)NC(SCC(=O)Nc2ccccc2[N+](=O)[O-])=N1 | inactive | –
3 | Cc1noc(C)c1NC(=O)N(C)C[C@H]1Oc2c(NC(=O)C3CCCCC3)cccc2C(=O)N([C@H](C)CO)C[C@@H]1C | inactive | –
4 | COc1ccc(CCNC(=O)c2ccco2)cc1 | inconclusive: 18.4 µM [activator, partial curve] | –
5 | COc1ccc(CN(C)CC(=O)Nc2sc3c(c2C#N)CCC3)cc1OC | inconclusive: 13 µM [inhibitor, partial curve] | –
6 | O=C(CSc1n[nH]c(-c2ccccc2)n1)NCc1cccc(C(=O)O)c1 | inactive | –
7 | COc1ccc(NC(=O)c2ccc(Cn3cc(Cl)cn3)cc2)cc1 | inactive | –
8 | O=C1C2C(C(=O)N1/N=C/c1cccc([N+](=O)[O-])c1)C1C=CC2C12CC2 (configuration not stated) | inconclusive: 11.6 µM [activator, partial curve] | –
9 | CC1=C/C(=C\c2ccc(Br)o2)C(=O)O1 | inactive | –
10 | CN(N=Nc1ccc([N+](=O)[O-])cc1)c1ccccc1 | inconclusive: 14.6 µM [activator, partial curve] | –
11 | COc1ccc(CC(=O)NCc2n[nH]c(=S)n2-c2ccccc2)cc1 | – | inconclusive: 79.9% [activator]
12 | CCOC(=O)c1[nH]c(C)c(CC(C)C)c1C | inconclusive: 16.4 µM [activator, single point] | –
13 | Cc1ccc2c(CC(=O)NC3=NCCS3)coc2c1 | inconclusive: 29.1 µM [activator, single point] | –
14 | COc1ccc(C(=O)Nc2ccc3c(c2)OCO3)cc1OC | inconclusive: 16.4 µM [activator, partial curve] | –
15 | Cn1c(-c2ccc(F)cc2)cnc1SCC(=O)N1CCCCC1 | inconclusive: 1.84 µM [activator, full curve] | –
16 | Clc1ccc(-c2noc(CN3CCOCC3)n2)cc1 | inconclusive: 20.6 µM [activator, single point] | –
17 | O=[N+]([O-])c1ccccc1CN1CCN(Cc2ccc3ccccc3c2)CC1 | inconclusive: 16.4 µM [inhibitor, single point] | –
18 | Cc1ccc(-c2csc(NC(=O)c3ccc(F)cc3)c2C(=O)O)cc1 | inconclusive: 18.3 µM [activator, partial curve] | –
19 | O=C(Cc1cccs1)Nc1ccc2c(c1)C(=O)OC2 | inactive | –
20 | CC(C)CCNC(=O)C1CCN(c2nc3ccccc3o2)CC1 | inconclusive: 18.4 µM [inhibitor, partial curve, poor fit] | –
21 | Oc1ccc(N2CCN(Cc3c(-c4ccccc4)nc4ccccn34)CC2)cc1 | inactive | –
22 | Clc1ccccc1Cn1nnc(-c2cccs2)n1 | inconclusive: 20.6 µM [activator, partial curve] | –
23 | O=C(CCN1C(=O)/C(=C/c2ccccc2Cl)SC1=S)N1CCCC1 | inconclusive: 23.1 µM [inhibitor, single point] | –
24 | COCCNC(=O)/C(C#N)=C/c1ccc2c(c1)OCO2 | inconclusive: 29.1 µM [activator, single point] | –

3 compounds from above, ordered by length of the SMILES, falling.
Row | Compound | Potency | activity change, negative = inhibition
8 | O=C1C2C(C(=O)N1/N=C/c1cccc([N+](=O)[O-])c1)C1C=CC2C12CC2 (configuration not stated) | inconclusive: 11.6 µM [activator, partial curve] | –
7 | COc1ccc(NC(=O)c2ccc(Cn3cc(Cl)cn3)cc2)cc1 | inactive | –
16 | Clc1ccc(-c2noc(CN3CCOCC3)n2)cc1 | inconclusive: 20.6 µM [activator, single point] | –

(list continues)

Row | Compound | Potency | activity change, negative = inhibition
25 | CC(=O)Oc1ccc2c(c1)C(=O)c1ccccc1CO2 | inconclusive: 29.1 µM [activator, single point] | –
26 | Cc1ccc2c(c1)cc(CN(Cc1cccs1)C(=O)c1ccco1)c1nnnn12 | inconclusive: 29.1 µM [inhibitor, single point] | –
27 | Cc1ccc(N2C(=O)N(CC(=O)C(C)(C)C)c3ccccc3S2(=O)=O)cc1 | inactive | –
28 | S=c1[nH]nc(CCCc2n[nH]c(=S)o2)o1 | inconclusive: 25.9 µM [activator, partial curve, poor fit] | –
29 | c1ccc(Cn2c(CNc3nc4ccccc4n3CCN3CCCCC3)nc3ccccc32)cc1 | inconclusive: 32.6 µM [inhibitor, single point] | –
30 | COc1ccc(C(=O)NCCc2ccc(F)cc2)cc1OC | inconclusive: 29.1 µM [activator, single point] | –
31 | O=C(Nc1cccc(S(=O)(=O)N2CCOCC2)c1)c1ccc(=O)[nH]c1 | inconclusive: 18.3 µM [activator, partial curve, poor fit] | –
32 | CC(C)(C)c1ccc(Oc2ncccc2NC(=O)c2cccs2)cc1 | inconclusive: 23.1 µM [inhibitor, single point] | –
33 | CN(C)CCCN(C(=O)/C=C/c1cccs1)c1nc2c(F)cccc2s1 | inactive | –
34 | COCCCNC(=O)c1cc(-c2cccnc2)nc2ccccc12 | inactive | –
35 | CC12CCC(C(=O)N(CC(O)CN3CCN(Cc4ccccc4)CC3)C1=O)C2(C)C (configuration not stated) | inconclusive: 29.1 µM [activator, single point] | –
36 | COc1ccc(N(C(=O)c2ccn[nH]2)C(C(=O)NC2CCCC2)c2ccc(F)cc2)cc1 (configuration not stated) | inactive | –
37 | O=C(O)CCCCCn1c(SCC(=O)c2ccc(O)c(O)c2)nc2ccsc2c1=O | inactive | –
38 | Cc1cc(N2CCN(c3ccccn3)CC2)n2c(nc3ccccc32)c1C#N | inactive | –
39 | CCc1ccc2c(CN3CCOCC3)cc(=O)oc2c1 | inconclusive: 14.6 µM [activator, partial curve] | –
40 | NC(=O)CSc1nc2c(c(=O)n1-c1ccccc1)C1(CCCCC1)Cc1ccccc1-2 | inconclusive: 25.9 µM [inhibitor, single point] | –
41 | CCOC(=O)N/N=C/c1ccc(N(CC)CC)cc1O | inconclusive: 13 µM [activator, partial curve] | –
42 | CCOc1ccc(C(=O)NC(C(=O)NCCc2ccc(OC(F)F)cc2)C(C)C)cc1 (configuration not stated) | inactive | –
43 | Cc1sc(NC(=O)Cn2c(=O)oc3ccccc32)nc1-c1ccc(Cl)cc1 | inactive | –
44 | O=C(COC(=O)c1cn(-c2ccccc2)nc1-c1ccccc1)Nc1ncc(Cl)cc1Cl | inactive | –
45 | CC(C)N(C(=O)[C@H]1C[C@H](CC(=O)NC(C)(C)C)C(=O)N2CCc3c([nH]c4ccc(Cl)cc34)[C@]12C)C(C)C | inconclusive: 9.2 µM [inhibitor, partial curve, poor fit] | –
46 | C[C@H]1CN([C@@H](C)CO)C(=O)c2cc(NC(=O)C3CCCCC3)ccc2O[C@H]1CN(C)C(=O)Nc1ccc2c(c1)OCO2 | active: 1.3 µM | –
47 | Cc1ccc(N(Cc2ccccc2)C(=O)c2ccc(C)c(S(=O)(=O)N3CCOCC3)c2)cc1 | inconclusive: 18.3 µM [inhibitor, partial curve, poor fit] | –
48 | O=C(NC1=C(Nc2ccc(Cl)cc2)C(=O)c2ccccc2C1=O)c1ccccc1 | inconclusive: 14.6 µM [inhibitor, partial curve, poor fit] | –

Row | Compound | Potency | activity change, negative = inhibition
49 | Cc1ccc(NC(=S)NC(=O)C2CC2)cc1Cl | inconclusive: 23.1 µM [activator, single point] | –
50 | COc1cccc2sc(N3CCN(C(=O)C4COc5ccccc5O4)CC3)nc12 (configuration not stated) | inconclusive: 16.4 µM [inhibitor, single point] | –
51 | Cc1nn(Cc2ccccc2Cl)c(C)c1NC(=O)c1noc2c1CCCCC2 | inactive | –
52 | CCC(CO)NC(=O)c1ccc(-c2nn(C)c(=O)c3ccccc23)cc1 (configuration not stated) | inconclusive: 23.1 µM [activator, single point] | –
53 | CCOC(=O)N1CCC(NS(=O)(=O)c2ccc(C)cc2)CC1 | inconclusive: 18.3 µM [inhibitor, partial curve] | –
54 | O=C(CSc1nnc(-c2c[nH]c3ccccc23)o1)N1CCCCC1 | inconclusive: 20.6 µM [activator, single point] | –
55 | COc1ccc(OCc2cn3c(C)cc(C)nc3n2)cc1 | inconclusive: 13 µM [activator, single point] | –
56 | O=C(Nn1cnnc1)c1ccc(F)cc1 | inactive | –
57 | Cc1cccc(NS(=O)(=O)c2cccc(C(=O)N3CCCC3)c2)c1 | inactive | –
58 | CC(Oc1ccc(F)cc1Br)c1nc2ccccc2c(=O)[nH]1 (configuration not stated) | inconclusive: 16.4 µM [activator, partial curve, poor fit] | –
59 | Cc1cccc(Nc2nc(NCc3ccco3)nc(N3CCOCC3)n2)c1 | inconclusive: 23.1 µM [inhibitor, single point] | –
60 | CS(=O)(=O)N1N=C(c2ccc3nccnc3c2)CC1c1ccccc1 (configuration not stated) | inactive | –
61 | COc1cccc(CN2CCNC(=O)C2CC(=O)NCCCN2CCCC2=O)c1 (configuration not stated) | inconclusive: 29.1 µM [activator, partial curve, poor fit] | –
62 | O=C(O)c1ccccc1CSc1nc2ccccc2[nH]1 | inconclusive: 29.1 µM [activator, single point] | –
63 | S=C(Nc1ccc(Oc2ccccc2)cc1)Nc1cccnc1 | inactive | –
64 | CC(C)CC(=O)N1CCN(S(=O)(=O)c2ccccc2)CC1 | inconclusive: 18.4 µM [activator, single point] | –
65 | CCCC1=C(C(=O)OCC)C(c2ccc(N(C)C)cc2)n2ncnc2N1 (configuration not stated) | inactive | –
66 | Oc1cc(-c2ccccc2)c2ccccc2c1 | inactive | –
67 | CCCCc1ccc(-c2nc(N)n[nH]2)cc1 | inconclusive: 14.6 µM [activator, partial curve] | –
68 | O=C(Cc1ccccc1)Nc1ccc(NC(=O)c2cccs2)cc1Cl | inactive | –
69 | O=C(c1ccccc1Oc1ccccc1)N1CCN(c2ccc(F)cc2)CC1 | inconclusive: 32.6 µM [activator, partial curve, poor fit] | –
70 | CC(C)=NNc1nc(-c2ccccc2)c(C)s1 | inactive | –
71 | CCc1cccc(Nc2cc(C)nc3ncnn23)c1 | inconclusive: 29.1 µM [activator, single point] | –
72 | CC(C)(C)[C@@H]1C=C(C(=O)Nc2ccccc2)O[C@H](OCc2ccc(CO)cc2)C1 | active: 7.3 µM | –

Compounds from the list above with bromine (two):
Row | Compound | Potency | activity change, negative = inhibition
9 | CC1=C/C(=C\c2ccc(Br)o2)C(=O)O1 | inactive | –
58 | CC(Oc1ccc(F)cc1Br)c1nc2ccccc2c(=O)[nH]1 (configuration not stated) | inconclusive: 16.4 µM [activator, partial curve, poor fit] | –
